Results reported in PubChem BioAssay AID1671190 (National Center for Advancing Translational Sciences (NCATS), 2021).
Values joined by “and” are separate entries in the source; they are usually repeats but may differ in a detail not shown here. Equal entries are not always repeated. Screen size: about 580,000 compounds; about 6,100 (1.1%) were called active. Inconclusive results, whose numbers are uncertain, are shown with a selection of clear calls. Calls come from the whole dose curve; as a rule, active = well fitted inhibition curve with a large enough effect; inconclusive = small, poorly fitted or top-dose-only effect, or another doubt; inactive = no such curve, though single readings can be large or run the other way. Where the call is inconclusive, the potency comes from a doubtful curve fit.

Protein sequences, listed by entry. Tags and fused reporters are not part of them. Lines headed by an entry give the natural chain unless they say otherwise; changes in a name come on top.
UniProt P18054: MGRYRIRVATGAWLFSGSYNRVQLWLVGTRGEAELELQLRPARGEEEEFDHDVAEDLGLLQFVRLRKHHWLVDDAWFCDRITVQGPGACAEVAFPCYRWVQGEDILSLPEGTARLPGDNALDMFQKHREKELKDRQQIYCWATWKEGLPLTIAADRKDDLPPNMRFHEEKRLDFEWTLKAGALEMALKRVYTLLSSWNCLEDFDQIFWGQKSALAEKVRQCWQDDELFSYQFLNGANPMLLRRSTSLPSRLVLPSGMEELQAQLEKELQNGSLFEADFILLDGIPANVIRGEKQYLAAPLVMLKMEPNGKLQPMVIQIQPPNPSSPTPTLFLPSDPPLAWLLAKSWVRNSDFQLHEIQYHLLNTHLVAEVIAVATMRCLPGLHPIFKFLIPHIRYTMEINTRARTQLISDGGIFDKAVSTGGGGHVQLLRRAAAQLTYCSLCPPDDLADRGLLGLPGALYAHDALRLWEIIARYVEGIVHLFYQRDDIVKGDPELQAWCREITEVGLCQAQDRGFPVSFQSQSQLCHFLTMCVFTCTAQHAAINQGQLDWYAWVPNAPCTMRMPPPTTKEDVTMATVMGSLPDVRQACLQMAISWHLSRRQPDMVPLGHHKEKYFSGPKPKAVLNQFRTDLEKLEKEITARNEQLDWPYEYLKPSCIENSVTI

Target: Polyunsaturated fatty acid lipoxygenase ALOX12 (Homo sapiens) (UniProt P18054)
Assay: Primary qHTS assay for inhibitors of human arachidonate 12S-lipoxygenase (ALOX12): Round 2
Details: purified 12hLO, xylenol orange hydroperoxide absorbance; series mostly up to 108 µM
Procedure, shortened: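 Purified human 12hLO at 150 nM in 25 mM Hepes, 0.01% Triton X-100, pH 7.0, preincubated 15 min at room temperature with compound. Reaction started with 40 uM arachidonic acid, 30 min at room temperature. Hydroperoxide measured by Fe-xylenol orange, 573/405 nm absorbance ratio.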
Potency is the fitted concentration of half-maximal effect.

| SMILES | Potency |
| --- | --- |
| CCCCC(=O)NCC(O)COCc1ccc(OC)cc1 (configuration not stated) | inactive |
| CCC(=O)N1CCCC(C)(C(=O)Nc2ccc(C)c(C)c2)C1 (configuration not stated) | inactive |
| NC12CC3CC(C1)CC(CO)(C3)O2 | inconclusive: 35.5 µM [inhibitor, single point] |
| COCCN(Cc1nccs1)C(=O)c1cnc(-c2ccccn2)[nH]c1=O | inactive |
| CCN1C(=O)[C@H]2[C@@H](c3ccc(-c4ccc(F)cc4)c(OC)c3)N[C@@](C)(C(=O)OC)[C@H]2C1=O | active: 11.2 µM |
| C#CCOc1ccc(/C=C2/C(=O)ON=C2C)cc1Cl | active: 8.91 µM |
| CC1CCN(c2ccc3c(c2)S(=O)(=O)c2cccc(C(=O)NC4CCCCC4)c2C3=O)CC1 | inconclusive: 44.7 µM [inhibitor, partial curve, poor fit] |
| Cn1cnc2cc(NC(=O)c3ccc(Cl)cc3)ccc21 | inconclusive: 17.8 µM [inhibitor, partial curve] |
| Cc1ccc(C(=O)N2CCC[C@H]2c2nc(-c3ccccc3)no2)cc1C | inconclusive: 79.4 µM [inhibitor, single point] |
| O=C(c1cccc([N+](=O)[O-])c1)N1CCN(C/C=C/c2ccccc2)CC1 | inconclusive: 100 µM [inhibitor, partial curve, poor fit] |
| O=C(O)CSc1c2c(nc3cc(C(=O)Nc4ccc(F)c(Cl)c4)ccc13)CCC2 | inconclusive: 50.1 µM [inhibitor, partial curve, poor fit] |
| CNc1cc(C2CC(NC(=O)c3ccc4c(c3)OCC(=O)N4)C2)ncn1 (configuration not stated) | inactive |
| CN1CCN(C(=O)/C(=C/c2ccc(N(C)C)cc2)NC(=O)c2ccccc2)CC1 | inactive |
| COc1ccc2cc(-c3nc4ccc(C(=O)O)cc4[nH]3)c(=O)oc2c1 | inconclusive: 56.2 µM [inhibitor, partial curve, poor fit] |
| Cc1ccc(S(=O)(=O)N2[C@@H](c3ccc(Br)cc3)C(C(=O)O)=CC[C@H]2c2cccc(Cl)c2)cc1 | inconclusive: 50.1 µM [inhibitor, partial curve, poor fit] |
| C=Cc1ccc(Cn2nc(-c3ccc(C)c(S(=O)(=O)N(CC)CC)c3)ccc2=O)cc1 | inactive |
| Cn1nc(-c2ccc(C(=O)Nc3ccc(F)cc3)cc2)c2ccccc2c1=O | inconclusive: 112 µM [inhibitor, single point] and inconclusive: 50.1 µM [inhibitor, partial curve] |
| Oc1ccc(C[C@H]2CNC(=S)N2CCc2cc(C(F)(F)F)cc(C(F)(F)F)c2)cc1 | inconclusive: 50.1 µM [inhibitor, partial curve, poor fit] |
| COc1cccc(N2CCN(C(=O)CCNS(=O)(=O)c3ccc4[nH]c(=O)ccc4c3)CC2)c1 | inactive |
| COc1ccc(C2=CC(=O)CC(c3ccc(OC)cc3)C2)cc1 (configuration not stated) | inactive |
| Cc1cccc(NS(=O)(=O)c2ccc(NC(=O)CN(c3cc([N+](=O)[O-])ccc3C)S(C)(=O)=O)cc2)c1 | inconclusive: 89.1 µM [inhibitor, partial curve, poor fit] |

| SMILES | Potency |
| --- | --- |
| COc1ccc(CC2CCOC2=O)cc1 (configuration not stated) | inactive |
| NC(N)=N/N=C/c1ccc(OCc2ccc(Cl)cc2Cl)cc1 | inconclusive: 50.1 µM [inhibitor, partial curve, poor fit] |
| COc1ccc(CNCc2cccc(C)c2)cc1 | inconclusive: 1.78 µM [inhibitor, full curve, poor fit] |
| Cc1ccc(C2=NC3(CCCCC3)NC2=S)cc1 | inactive |
| COc1ccc(C2C3=C(CCCC3=O)N(CC(=O)O)C3=C2C(=O)CCC3)cc1Br | inconclusive: 79.4 µM [inhibitor, partial curve, poor fit] |
| Cn1c(=O)c2cn3c(c2n(C)c1=O)C(c1ccccc1)CC(c1ccccc1)=N3 (configuration not stated) | inconclusive: 31.6 µM [inhibitor, single point] |
| O=C(O)C(c1c[nH]c2cc(Cl)ccc12)N1CCCN(c2ccc(C(F)(F)F)cn2)CC1 (configuration not stated) | inconclusive: 35.5 µM [inhibitor, partial curve] |
| CCOc1ccc(C(=O)O[C@H]2[C@H](Cc3ccccc3)NS(=O)(=O)[C@H]3C[C@@H]4C=C[C@]23O4)cc1 | inconclusive: 100 µM [inhibitor, partial curve, poor fit] |
| CSCC[C@H](N)C(=O)N1CCC2(CCC(=O)N(Cc3ccccc3)C2)CC1 | inconclusive: 6.31 µM [inhibitor, full curve, poor fit] |
| CCOc1ccccc1NC(=O)Cn1nnc2sc(-c3ccccc3)cc2c1=O | inconclusive: 56.2 µM [inhibitor, partial curve, poor fit] |
| O=C1C(c2ccc(F)cc2)N(CCc2ccccc2Cl)C(=O)CN1C1CCCCC1 (configuration not stated) | inactive |
| COc1cccc(NC(C)=[N+](C)CCNS(=O)(=O)c2ccc(Cl)cc2)c1 | inconclusive: 35.5 µM [inhibitor, partial curve, poor fit] |
| CCOC(=O)C(C)Oc1cccc2c(=O)n(CC(=O)NCc3ccc(F)cc3)ccc12 (configuration not stated) | inactive |
| CCNC(=O)CNc1nc(C(F)(F)F)nc2ccccc12 | inactive |
| Cc1ccc(-c2nn(CCC#N)c(=O)c3ccccc23)cc1 | inconclusive: 100 µM [inhibitor, single point] |
| COCC(=O)N(C)C[C@H]1N[C@@](Cc2ccccc2)(C(=O)OC)[C@H]2C(=O)N(C)C(=O)[C@@H]12 | inconclusive: 10 µM [inhibitor, full curve, poor fit] |
| CC(C)CCOc1ccc(C(=O)CCN(C)C)cc1 | inconclusive: 17.8 µM [inhibitor, full curve, poor fit] |
| S=C(NCc1cccc(Cl)c1)NC1CCCCC1 | inconclusive: 56.2 µM [inhibitor, partial curve, poor fit] |
| Cc1cc(=O)oc2c1ccc1oc(/C(=N/O)c3ccccc3)c(-c3ccccc3)c12 | inconclusive: 14.1 µM [inhibitor, partial curve] |
| O=C(/C=N/O)Nc1cccc([N+](=O)[O-])c1 | inconclusive: 44.7 µM [inhibitor, partial curve, poor fit] |
| CC1=C(C)CC(C(=O)NCc2ccncc2)C(C(=O)O)C1 (configuration not stated) | inactive |

| SMILES | Potency |
| --- | --- |
| O=C(Nc1nc(-c2cc3ccccc3o2)cs1)c1ccc(S(=O)(=O)N2CCCC2)cc1 | inactive |
| O=C(O)C1CCN(C(=O)c2ccc3c(c2)OCO3)CC1 | inconclusive: 2.82 µM [inhibitor, full curve, poor fit] |
| CN1CCN(c2ccc(-c3cccc(NC(=O)COc4ccc(Cl)cc4)c3)nn2)CC1 | inconclusive: 44.7 µM [inhibitor, partial curve, poor fit] |
| Cc1ccc(Sc2c(C(=O)Nc3ccc(F)cc3F)c(C(F)(F)F)nn2C)cc1 | inconclusive: 112 µM [inhibitor, partial curve, poor fit] |
| CCCn1c(/C=C/c2ccco2)nc2ccccc21 | inconclusive: 89.1 µM [inhibitor, partial curve, poor fit] |
| CC1=C(c2ccc(C)c(C)c2)S(=O)(=O)N=C1N1CCC(C(=O)NCCc2ccco2)CC1 | inconclusive: 100 µM [inhibitor, partial curve, poor fit] |
| Cc1noc(C)c1S(=O)(=O)NC(=O)C1(C)CCN1C(=O)CC(c1ccccc1)c1ccccc1 (configuration not stated) | inconclusive: 3.98 µM [inhibitor, full curve, poor fit] |
| O=C(NCCCCCCNC(=O)c1ccc(Br)s1)c1ccc(Br)s1 | inconclusive: 89.1 µM [inhibitor, partial curve, poor fit] |
| OCCCNc1nc(-c2ccc(Cl)cc2)nc2ccccc12 | inconclusive: 12.6 µM [inhibitor, partial curve, poor fit] |
| COc1ccccc1OCCCCCc1c(C)n[nH]c1C | inconclusive: 3.98 µM [inhibitor, full curve, poor fit] |
| COC(=O)C1=C(C)NC(C)=C(C(=O)OC)C1c1ccc(-c2cc(Cl)ccc2Cl)o1 | inconclusive: 22.4 µM [inhibitor, partial curve, poor fit] |
| CC(=O)NCCNc1ncnc2ccc(-c3c(C)noc3C)cc12 | inconclusive: 15.8 µM [inhibitor, partial curve, poor fit] |
| CCOc1nc2ccccc2nc1N1CCC(C(=O)NC2CCCC2)CC1 | inconclusive: 50.1 µM [inhibitor, full curve, poor fit] |
| CCc1ccc(Nc2n[n+](-c3ccccc3)c(-c3ccc(OCc4ccccc4)cc3)s2)cc1 | active: 22.4 µM |
| Cc1cc(C)c(-c2cc(C(=O)Nc3cccc(C(F)(F)F)c3)[nH]n2)c(O)c1 | inconclusive: 35.5 µM [inhibitor, partial curve, poor fit] |
| CCN1CC2(CCN(C(=O)CC(N)c3ccc(OC)c(OC)c3)CC2)CC1=O (configuration not stated) | inconclusive: 8.91 µM [inhibitor, full curve] |
| CN1CC(=O)N(C2CCNCC2)Cc2c(NCC3CCCCCC3)ncnc21 | inconclusive: 3.59 µM [inhibitor, single point] |
| O=C(O)C12CC3CC(C(=O)O)(C1)CC(C(=O)O)(C3)C2 | inactive |
| O=C1NN(c2ccccc2)C(=O)/C1=C\c1ccccc1OCC(=O)N1CCOCC1 | inconclusive: 44.7 µM [inhibitor, partial curve, poor fit] |
| O=C(Nc1ccc2oc(Cc3ccc(Cl)cc3)nc2c1)c1cccnc1 | inconclusive: 50.1 µM [inhibitor, partial curve, poor fit] |

Shown tab-delimited: two of the compounds above.
SMILES	Potency
CCCCC(=O)NCC(O)COCc1ccc(OC)cc1 (configuration not stated)	inactive
CC1CCN(c2ccc3c(c2)S(=O)(=O)c2cccc(C(=O)NC4CCCCC4)c2C3=O)CC1	inconclusive: 44.7 µM [inhibitor, partial curve, poor fit]
